Measurements as given in PubChem BioAssay AID256 (DTP/NCI, 2004).
The list is a part of this screen's results and no random one: it gathers tests that were run many times, whatever their T/C, doses with no T/C, and many T/C values between a quarter and a half above the control. Other doses and runs of a compound stand elsewhere. T/C gives the treated animals as a percentage of the vehicle group. Some doses have a count of surviving animals in place of a T/C: the source holds a T/C of zero for them, seemingly a mark for toxic or unscored doses. Some survivor counts are full or nearly so, which does not show that the dose was tolerated: the source hardly ever lists a survival T/C far under the control, and the zero likely stands for such cases as well. Counts of survivors are from the toxicity check (mostly the fifth day) where no day follows; animals may have died later. Schedule codes are those of the source, taken here to give the interval after Q, in days (D) or hours (H), and the number of doses after X. Some entries hold several experiments; the results are listed from low to high. For survival time, this PubChem deposit counts one and a half times the control or more as active, and values a quarter to a half above the control carry no call in these data; other NCI protocols may use other cut-offs. Some T/C values are followed by the survivors on the day toxicity was checked, most often the fifth; without a count, all were alive then.

Tested on: CD2F1 mice, L1210 leukemia ip, survival T/C
Test: NCI In Vivo Anticancer Drug Screen. Data for tumor model L1210 Leukemia (intraperitoneal) in CD2F1 (CDF1) mice
Conditions: higher T/C = longer survival
Summary of the method: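 Each value reflects a quotient of treated over vehicle control outcomes in mice with a transplanted tumor.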

[1] = T/C endpoint: mean survival time, dose: 200.0 mg/kg/injection, schedule: Q04DX003 (ip), vehicle: saline with Tween-80
[2] = T/C endpoint: mean survival time, dose: 100.0 mg/kg/injection, schedule: Q04DX003 (ip), vehicle: saline with Tween-80
[3] = T/C endpoint: mean survival time, dose: 400.0 mg/kg/injection, schedule: Q01DX009 (ip), vehicle: saline with Tween-80
[4] = T/C endpoint: mean survival time, dose: 400.0 mg/kg/injection, schedule: Q04DX003 (ip), vehicle: saline
[5] = T/C endpoint: mean survival time, dose: 100.0 mg/kg/injection, schedule: Q01DX009 (ip), vehicle: Klucel (hydroxypropylcellulose) (HPC)
[6] = T/C endpoint: mean survival time, dose: 6.25 mg/kg/injection, schedule: Q01DX009 (ip), vehicle: saline
[7] = T/C endpoint: mean survival time, dose: 12.5 mg/kg/injection, schedule: Q01DX009 (ip), vehicle: saline

For `C=CC1=NC(C)(C)CC(C)O1` (configuration not stated), the survivor count (T/C endpoint: mean survival time, dose: 12.5 mg/kg/injection, schedule: Q01DX009 (ip), vehicle: water) was 4 of 6, the survivor count (T/C endpoint: mean survival time, dose: 25.0 mg/kg/injection, schedule: Q01DX009 (ip), vehicle: water) was 0 of 6 and the survivor count (T/C endpoint: mean survival time, dose: 50.0 mg/kg/injection, schedule: Q01DX009 (ip), vehicle: water) was 0 of 6. For the same molecule, the survivor count (T/C endpoint: mean survival time, dose: 100.0 mg/kg/injection, schedule: Q01DX009 (ip), vehicle: water) was 0 of 6 and the survivor count (T/C endpoint: mean survival time, dose: 200.0 mg/kg/injection, schedule: Q01DX009 (ip), vehicle: water) was 0 of 6.
With `Nc1nc(=S)c2[nH]c(N=Nc3ccc(S(N)(=O)=O)cc3)nc2[nH]1` the survivor count (T/C endpoint: mean survival time, dose: 100.0 mg/kg/injection, schedule: Q04DX003 (ip), vehicle: Klucel (hydroxypropylcellulose) (HPC)) was 0 of 6 and the survivor count (T/C endpoint: mean survival time, dose: 200.0 mg/kg/injection, schedule: Q04DX003 (ip), vehicle: Klucel (hydroxypropylcellulose) (HPC)) was 0 of 6.
For `Clc1cccc(-c2nc3ccccc3c3ccccc23)c1`, the survivor count [1] was 6 of 6.
With `CCCC(Sc1nc(N)nc2nc[nH]c12)C(=O)O` (configuration not stated) the T/C (T/C endpoint: mean survival time, dose: 75.0 mg/kg/injection, schedule: Q04DX003 (ip), vehicle: saline with Tween-80) was 131 % of control, the T/C [2] was 126 % of control and the T/C [1] was 149 % of control.
`NC(=O)c1c(N)sc2c1CCCC2` was tested, and the survivor count [2] was 1 of 6, the survivor count [1] was 0 of 6 and the survivor count (T/C endpoint: mean survival time, dose: 400.0 mg/kg/injection, schedule: Q04DX003 (ip), vehicle: saline with Tween-80) was 0 of 6.
With `O=C(O)c1cccc(COc2ccc([N+](=O)[O-])cc2Cl)c1` the survivor count [3] was 0 of 6.
For `CNN(C)N=Nc1ccc(C(N)=O)cc1`, the survivor count (T/C endpoint: mean survival time, dose: 79.0 mg/kg/injection, schedule: Q01DX009 (ip), vehicle: Klucel (hydroxypropylcellulose) (HPC)) was 2 of 6, the survivor count (T/C endpoint: mean survival time, dose: 118.0 mg/kg/injection, schedule: Q01DX009 (ip), vehicle: Klucel (hydroxypropylcellulose) (HPC)) was 0 of 6 and the survivor count (T/C endpoint: mean survival time, dose: 177.0 mg/kg/injection, schedule: Q01DX009 (ip), vehicle: Klucel (hydroxypropylcellulose) (HPC)) was 0 of 6. The survivor count (T/C endpoint: mean survival time, dose: 266.0 mg/kg/injection, schedule: Q01DX009 (ip), vehicle: Klucel (hydroxypropylcellulose) (HPC)) was 0 of 6 and the survivor count (T/C endpoint: mean survival time, dose: 400.0 mg/kg/injection, schedule: Q01DX009 (ip), vehicle: Klucel (hydroxypropylcellulose) (HPC)) was 0 of 6.
With `C[N+](C)(C)Cc1ccccc1` the survivor count (T/C endpoint: mean survival time, dose: 25.0 mg/kg/injection, schedule: Q04DX003 (ip), vehicle: saline) was 4 of 6, the survivor count (T/C endpoint: mean survival time, dose: 50.0 mg/kg/injection, schedule: Q04DX003 (ip), vehicle: saline) was 0 of 6 and the survivor count (T/C endpoint: mean survival time, dose: 100.0 mg/kg/injection, schedule: Q04DX003 (ip), vehicle: saline) was 6 of 6. For the same molecule, the survivor count (T/C endpoint: mean survival time, dose: 200.0 mg/kg/injection, schedule: Q04DX003 (ip), vehicle: saline) was 4 of 6 and the survivor count [4] was 0 of 6.
For `CC(=O)NC1C=CC(=O)O1` (configuration not stated), the survivor count (T/C endpoint: mean survival time, dose: 75.0 mg/kg/injection, schedule: Q01DX001 (ip), vehicle: saline) was 0 of 6.
For `O=CC(CO)OC(C=O)n1ccc(=O)[nH]c1=O` (configuration not stated), the T/C (T/C endpoint: median survival time, dose: 100.0 mg/kg/injection, schedule: Q04DX003 (ip), vehicle: saline) was 134 % of control.
With `NCc1cc(O)c(O)c(O)c1` the T/C (T/C endpoint: median survival time, dose: 37.5 mg/kg/injection, schedule: Q01DX005 (ip), vehicle: saline) was 128 % of control, the T/C (T/C endpoint: median survival time, dose: 108.0 mg/kg/injection, schedule: Q01DX005 (ip), vehicle: saline) was 146 % of control and the T/C (T/C endpoint: median survival time, dose: 150.0 mg/kg/injection, schedule: Q01DX005 (ip), vehicle: saline) was 130 % of control. The T/C (T/C endpoint: median survival time, dose: 180.0 mg/kg/injection, schedule: Q01DX005 (ip), vehicle: saline) was 146 % of control, the T/C (T/C endpoint: median survival time, dose: 300.0 mg/kg/injection, schedule: Q01DX005 (ip), vehicle: saline) was 132 % of control and the T/C (T/C endpoint: median survival time, dose: 500.0 mg/kg/injection, schedule: Q01DX005 (ip), vehicle: saline) was 143 % of control. For the same molecule, the T/C (T/C endpoint: median survival time, dose: 600.0 mg/kg/injection, schedule: Q01DX005 (ip), vehicle: saline) was 137 and 145 % of control [5 of 6 alive] and the T/C (T/C endpoint: median survival time, dose: 833.33 mg/kg/injection, schedule: Q01DX005 (ip), vehicle: saline) was 142 % of control [5 of 6 alive].
In the case of `C1CCC2OCCOCCOC3CCCCC3OCCOCCOC2C1` (configuration not stated), the survivor count [5] is reported as 1 of 6.
`COc1cccc2c1C(=O)c1c(O)c3c(c(O)c1C2=O)C[C@@](O)(C(=O)CN1CCN(C)CC1)C[C@@H]3OC1CC(N)C(O)C(C)O1` (some centres not stated) was tested, and the survivor count (T/C endpoint: mean survival time, dose: 3.13 mg/kg/injection, schedule: Q04DX003 (ip), vehicle: water) was 6 of 6.
For `CCCCCCCCCCCCCCCC[N+]1(C)CCSCC1`, the T/C (T/C endpoint: mean survival time, dose: 1.56 mg/kg/injection, schedule: Q01DX009 (ip), vehicle: saline) was 100, 101, 108, 122 % of control, the T/C (T/C endpoint: mean survival time, dose: 3.13 mg/kg/injection, schedule: Q01DX009 (ip), vehicle: saline) was 90, 98, 98 [5 of 6 alive], 101, 102, 103, 114, 130 % of control and the T/C [6] was 96, 96 [5 of 6 alive], 98, 102, 107, 111 % of control. For the same molecule, the survivor count [6] was 1 of 3, the T/C [7] was 98, 100 [4 of 6 alive], 100 % of control [5 of 6 alive] and the survivor count [7] was 0 of 6, 1 of 3, 2 of 3. The survivor count (T/C endpoint: mean survival time, dose: 12.5 mg/kg/injection, schedule: Q04DX002 (ip), vehicle: saline) was 1 of 3 and 3 of 6, the survivor count (T/C endpoint: mean survival time, dose: 25.0 mg/kg/injection, schedule: Q01DX009 (ip), vehicle: saline) was 0 of 6 and the survivor count (T/C endpoint: mean survival time, dose: 25.0 mg/kg/injection, schedule: Q04DX002 (ip), vehicle: saline) was 0 of 3. The survivor count (T/C endpoint: mean survival time, dose: 50.0 mg/kg/injection, schedule: Q04DX002 (ip), vehicle: saline) was 2 of 3 and 5 of 6.
`CCCCCCCCCCCCCCCCCC(=O)NCCN(CC)CC` was tested, and the survivor count (T/C endpoint: mean survival time, dose: 150.0 mg/kg/injection, schedule: Q01DX001 (ip), vehicle: saline) was 3 of 6 and the survivor count (T/C endpoint: mean survival time, dose: 300.0 mg/kg/injection, schedule: Q01DX001 (ip), vehicle: saline) was 1 of 6.
For `COc1cc(C(=O)c2cc3c(cc2C)OCO3)cc(OC)c1OC`, the T/C [5] was 129 % of control and the survivor count (T/C endpoint: mean survival time, dose: 200.0 mg/kg/injection, schedule: Q01DX009 (ip), vehicle: Klucel (hydroxypropylcellulose) (HPC)) was 4 of 6.
For `C[CH2][Sn]([I])([CH2]C)[CH2]C`, the survivor count (T/C endpoint: mean survival time, dose: 12.5 mg/kg/injection, schedule: Q01DX009 (ip), vehicle: saline with Tween-80) was 1 of 6, the survivor count (T/C endpoint: mean survival time, dose: 25.0 mg/kg/injection, schedule: Q01DX009 (ip), vehicle: saline with Tween-80) was 0 of 6 and the survivor count (T/C endpoint: mean survival time, dose: 25.0 mg/kg/injection, schedule: Q04DX002 (ip), vehicle: saline with Tween-80) was 0 of 3. For the same molecule, the survivor count (T/C endpoint: mean survival time, dose: 50.0 mg/kg/injection, schedule: Q04DX002 (ip), vehicle: saline with Tween-80) was 0 of 3 and the survivor count (T/C endpoint: mean survival time, dose: 100.0 mg/kg/injection, schedule: Q04DX002 (ip), vehicle: saline with Tween-80) was 0 of 3.
`COc1ccc(C[C@@H]2NC[C@@H](O)[C@@H]2OC(C)=O)cc1` was tested, and the survivor count [3] was 3 of 6.
`c1ccc2[nH]c(CCCCc3nc4ccccc4[nH]3)nc2c1` was tested, and the survivor count [4] was 3 of 6.
In the case of `COC(=O)C1(F)C(=O)NC(=O)NC1OC` (configuration not stated), the T/C (T/C endpoint: median survival time, dose: 50.0 mg/kg/injection, schedule: Q01DX009 (ip), vehicle: Klucel (hydroxypropylcellulose) (HPC)) is reported as 148 % of control, the T/C (T/C endpoint: median survival time, dose: 100.0 mg/kg/injection, schedule: Q01DX005 (ip), vehicle: Klucel (hydroxypropylcellulose) (HPC)) is reported as 139 % of control and the T/C (T/C endpoint: median survival time, dose: 300.0 mg/kg/injection, schedule: Q01DX009 (ip), vehicle: Klucel (hydroxypropylcellulose) (HPC)) is reported as 149 % of control. For the same molecule, the T/C (T/C endpoint: median survival time, dose: 333.33 mg/kg/injection, schedule: Q01DX009 (ip), vehicle: Klucel (hydroxypropylcellulose) (HPC)) was 132 % of control, the T/C (T/C endpoint: median survival time, dose: 400.0 mg/kg/injection, schedule: Q01DX009 (ip), vehicle: Klucel (hydroxypropylcellulose) (HPC)) was 135 and 145 % of control and the T/C (T/C endpoint: median survival time, dose: 555.56 mg/kg/injection, schedule: Q01DX009 (ip), vehicle: Klucel (hydroxypropylcellulose) (HPC)) was 144 % of control. The T/C (T/C endpoint: median survival time, dose: 800.0 mg/kg/injection, schedule: Q01DX009 (ip), vehicle: Klucel (hydroxypropylcellulose) (HPC)) was 126 % of control.
For `CC1(CO)C2CCC(CC2)C1CO` (configuration not stated), the survivor count (T/C endpoint: mean survival time, dose: 400.0 mg/kg/injection, schedule: Q01DX001 (ip), vehicle: saline with Tween-80) was 1 of 6.
For `CCCOC(=O)OCCC`, the survivor count [2] was 3 of 6.
